# Laboratory results published in publication PMC12316266.
# The exact form of at least one protein or probe is not confirmed. For part of these data: Negatives hold for the conditions tested. A weaker result is weaker than the reference pair of the same experiment.
# How the values were obtained:
# [1] = target: Dcp2 (Homo sapiens) (UniProt Q8IU60); experiment: EMSA; conditions: 2 mM m7GpppA cap analog, no Mg2+, 5' m7GpppAm cap (2'-O-methyl on first A), EMSA: same buffer plus 5% glycerol, 24 C, 25 nM RNA, S2B EMSA: 50 mM KOAc, 20 mM Tris-OAc pH 7.9, 10 mM MgOAc, 100 ug/ml BSA, 37 C, 50 nM RNA, recombinant protein, protein details: His6-protein G-TEV tag, removed by TEV
# [2] = target: eIF4E (Homo sapiens) (UniProt P06730); experiment: EMSA; conditions: 5' m7GpppAm cap (2'-O-methyl on first A), EMSA: same buffer plus 5% glycerol, no Mg2+, 24 C, 25 nM RNA, S2B EMSA: 50 mM KOAc, 20 mM Tris-OAc pH 7.9, 10 mM MgOAc, 100 ug/ml BSA, 37 C, 50 nM RNA, recombinant protein, protein details: His6-protein G-TEV tag, removed by TEV
sequence,measurement,setting,value
"AGGAAAUAAGAGAGAAAAGAAGAGUAAGAAGAAAUAUAAGAGC [m7G-capped 43-mer RNA, 3' unlabeled]",binding result,[1],binds more weakly
same,binding result,"[2]; 625 nM Dcp2 added after eIF4E, singly bound eIF4E species down ~4.5-fold",binds more weakly
same,binding result,[2]; 2 mM m7GpppA cap analog,no binding
